# This list was built around the results that the source calls inconclusive (neither active nor inactive); the mix of calls is not that of the screen. Potencies beside an inconclusive call are fits to weak or partial responses and may not hold up. Calls of active or inactive are those of the source. Calls come from the whole dose curve; as a rule, active = well fitted inhibition curve with a large enough effect; inconclusive = small, poorly fitted or top-dose-only effect; inactive = no such curve, though single readings can be large or run the other way.
# The chains behind the UniProt entries cited, without tags or fusion partners.
# UniProt P49760, whole entry, looked up: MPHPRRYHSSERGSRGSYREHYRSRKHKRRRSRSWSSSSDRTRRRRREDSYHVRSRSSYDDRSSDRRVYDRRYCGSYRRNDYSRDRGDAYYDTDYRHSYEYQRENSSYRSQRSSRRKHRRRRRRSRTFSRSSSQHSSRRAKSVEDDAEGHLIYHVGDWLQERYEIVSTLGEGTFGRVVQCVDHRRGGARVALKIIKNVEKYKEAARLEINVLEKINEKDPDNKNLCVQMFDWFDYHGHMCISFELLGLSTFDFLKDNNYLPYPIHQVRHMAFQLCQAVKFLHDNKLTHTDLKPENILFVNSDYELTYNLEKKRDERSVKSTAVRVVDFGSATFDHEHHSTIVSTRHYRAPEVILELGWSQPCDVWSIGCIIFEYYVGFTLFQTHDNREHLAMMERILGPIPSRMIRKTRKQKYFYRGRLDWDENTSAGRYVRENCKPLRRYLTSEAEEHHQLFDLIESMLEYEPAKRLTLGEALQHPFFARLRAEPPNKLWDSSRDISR
# Biological target: Dual specificity protein kinase CLK2 (Homo sapiens) (UniProt P49760)
# Assay: Reaction Biology data for inhibitors of CLK2: Probe SAR
# Conditions: Reaction Biology CLK2 kinase assay, 10 uM ATP; series mostly up to 10 µM
# From the text: Alternative splicing of pre-mRNAs plays a major role in the regulation of eukaryotic gene expression. Alternative splicing is now thought to be one of the primary reasons for the complexity of higher organisms leading to an average of three protein isoforms per gene. Aberrant splicing can lead to a number of diseases and is known to play a role in rare genetic diseases such as progeria syndrome. Hutchinson-Gilford Progeria Syndrome (HGPS) is a pediatric premature aging disease caused by a spontaneous mutation in the lamin A/C (LMNA) gene due to a single point mutation in the lamin A gene effecting 1 in 4 million people. To identify both specific splicing modulators of the lamin A gene as well as general splicing modulators, a cell-based HTS assay was developed using a minigene reporter system (AIDs, 1459 & 1487). […] This AID summarizes the characterization of lead compounds in Clk2. NIH Molecular Libraries Probe Production Centers Network [MLPCN] NIH Chemical Genomics Center [NCGC] MLPCN Grant: MH084827 Assay Submitter (PI): Tom Misteli
# Compound IC50s were determined at Reaction Biology (http://www.reactionbiology.com) with ten concentration points starting at 10 uM in the assay using a 3-fold dilution series. The control compound staurosporine was also tested in the 10-dose IC50 mode with the same 3-fold serial dilution, again starting at 10 uM. All kinase reactions were performed using 10 uM ATP in the assay. 100% activity was taken from kinase reactions with DMSO alone (the vehicle used for compound stock solutions).
row,SMILES,Potency
1,Clc1ccc(CNc2ncncc2-c2ccc3c(c2)OCO3)cc1,inconclusive: 8.79 µM [inhibitor]
2,c1cncc(CNc2ncncc2-c2ccc3c(c2)OCO3)c1,inactive
3,FC(F)(F)c1cccc(Nc2nccc(-c3ccc4c(c3)OCO4)n2)c1,active: 0.0521 µM

# Reference: PubChem BioAssay AID624048 (National Center for Advancing Translational Sciences (NCATS), 2012)
